Reference: PubChem BioAssay AID743121 (NCATS, 2013)

- Test: 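Genes whose silencing strengthens cell killing by camptothecin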 (primary screen)
- Cells: MDA-MB-231 cells, a human breast cancer line
- Reagents: single siRNA against human genes, 20 nM siRNA (0.8 pmol per well)
- Duration: 120 h (drug added 48 h after transfection, read 72 h later)
- Challenge: camptothecin 20 nM (about EC30) for 72 h; vehicle 0.1% DMSO in parallel plates
- Detection: 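CellTiter-Glo ATP signal, scaled to control siRNA as percent viability; sensitisation given as log2 of untreated divided by camptothecin-treated viability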
- Reading the numbers: log2 vehicle/camptothecin viability: higher = stronger sensitisation to camptothecin; viability with camptothecin and viability without drug: higher = more viable cells
- Call rule: 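Each gene scored by redundant siRNA activity (RSA) over its individual siRNA ratios; a gene is called active at p < 0.001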
The deposit covers about 26,000 reagents; shown is a random part of them. 167 of them (0.63%) were called active. 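Calls are per gene from RSA p-values that are not deposited; an individual active-marked siRNA can sensitise only weakly.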 Reagents against one gene are numbered here.

gene,reagent,log2 vehicle/camptothecin viability,viability with camptothecin (% of control),viability without drug (% of control),activity call
CLN8 (CLN8 transmembrane ER and ERGIC protein),1,-0.447,84.5,62,inactive
CLN8 (CLN8 transmembrane ER and ERGIC protein),2,-0.151,63.8,57.4,inactive
CLN8 (CLN8 transmembrane ER and ERGIC protein),3,-0.32,45.6,36.5,inactive
CLN8 (CLN8 transmembrane ER and ERGIC protein),4,-0.114,91.8,84.9,inactive
IL22RA2 (interleukin 22 receptor subunit alpha 2),1,-0.593,82.5,54.7,inactive
IL22RA2 (interleukin 22 receptor subunit alpha 2),2,-0.0185,81.8,80.8,inactive
IL22RA2 (interleukin 22 receptor subunit alpha 2),3,0.0953,74.8,79.9,inactive
IL22RA2 (interleukin 22 receptor subunit alpha 2),4,-0.0255,97.7,96,inactive
NEURL1 (neuralized E3 ubiquitin protein ligase 1),1,-0.471,24.9,18,inactive
NEURL1 (neuralized E3 ubiquitin protein ligase 1),2,-0.185,47.7,41.9,inactive
NEURL1 (neuralized E3 ubiquitin protein ligase 1),3,-0.148,94.4,85.2,inactive
CRAT (carnitine O-acetyltransferase),1,0.748,25.3,42.5,inactive
CRAT (carnitine O-acetyltransferase),2,-0.19,53.5,46.9,inactive
CRAT (carnitine O-acetyltransferase),3,-0.236,44.4,37.7,inactive
CRAT (carnitine O-acetyltransferase),4,-0.554,117,79.4,inactive
FYB1 (FYN binding protein 1),1,0.0633,77,80.4,inactive
FYB1 (FYN binding protein 1),2,0.455,21.8,29.9,inactive
FYB1 (FYN binding protein 1),3,-0.036,92.9,90.6,inactive
FYB1 (FYN binding protein 1),4,-0.27,69.5,57.7,inactive
KAT6A (lysine acetyltransferase 6A),1,-0.364,58.7,45.6,inactive
KAT6A (lysine acetyltransferase 6A),2,-0.389,56.6,43.2,inactive
KAT6A (lysine acetyltransferase 6A),3,0.43,75.1,101,inactive
KAT6A (lysine acetyltransferase 6A),4,0.23,53.2,62.4,inactive
PLCB1 (phospholipase C beta 1),1,-1.04,98.2,47.7,inactive
PLCB1 (phospholipase C beta 1),2,-0.0887,85.4,80.3,inactive
PLCB1 (phospholipase C beta 1),3,0.0778,89.7,94.7,inactive
PLCB1 (phospholipase C beta 1),4,-0.364,72.3,56.2,inactive
CHMP1A (charged multivesicular body protein 1A),1,0.277,73.9,89.6,inactive
CHMP1A (charged multivesicular body protein 1A),2,0.0435,74.6,76.9,inactive
CHMP1A (charged multivesicular body protein 1A),3,0.154,66.2,73.7,inactive
CHMP1A (charged multivesicular body protein 1A),4,-0.332,98.4,78.2,inactive
CHMP1A (charged multivesicular body protein 1A),5,-0.333,107,84.7,inactive
CHMP1A (charged multivesicular body protein 1A),6,0.118,72.7,78.9,inactive
CHMP1A (charged multivesicular body protein 1A),7,-0.207,83.1,72,inactive
CHMP1A (charged multivesicular body protein 1A),8,-0.366,97.4,75.6,inactive
DNTTIP2 (deoxynucleotidyltransferase terminal interacting protein 2),1,-0.507,67.4,47.4,inactive
DNTTIP2 (deoxynucleotidyltransferase terminal interacting protein 2),2,-0.535,60,41.4,inactive
DNTTIP2 (deoxynucleotidyltransferase terminal interacting protein 2),3,-0.403,52.3,39.5,inactive
DNTTIP2 (deoxynucleotidyltransferase terminal interacting protein 2),4,-0.645,91.3,58.4,inactive
PDCL (phosducin like),1,-0.376,108,83.4,inactive
PDCL (phosducin like),2,-0.232,122,104,inactive
PDCL (phosducin like),3,-0.0616,102,98,inactive
PDCL (phosducin like),4,-0.0111,106,105,inactive
CD1E (CD1e molecule),1,0.369,38.6,49.9,inactive
CD1E (CD1e molecule),2,-0.138,108,98.3,inactive
CD1E (CD1e molecule),3,0.105,101,109,inactive
CD1E (CD1e molecule),4,-0.0173,102,101,inactive
MGAM (maltase-glucoamylase),1,0.149,59.4,65.8,inactive
MGAM (maltase-glucoamylase),2,-0.0757,96,91.1,inactive
MGAM (maltase-glucoamylase),3,0.103,96.3,103,inactive
MGAM (maltase-glucoamylase),4,0.0765,83.9,88.5,inactive
PON1 (paraoxonase 1),1,-0.0071,51.7,51.4,inactive
PON1 (paraoxonase 1),2,0.0344,86.5,88.5,inactive
PON1 (paraoxonase 1),3,-0.305,118,95.9,inactive
PON1 (paraoxonase 1),4,-0.0985,80.2,74.9,inactive
PRSS21 (serine protease 21),1,0.125,48.7,53.1,inactive
PRSS21 (serine protease 21),2,0.681,29,46.5,inactive
PRSS21 (serine protease 21),3,0.0909,97.8,104,inactive
PRSS21 (serine protease 21),4,1.11,29.2,63.3,inactive
TIAL1 (TIA1 cytotoxic granule associated RNA binding protein like 1),1,-0.398,118,89.7,inactive
TIAL1 (TIA1 cytotoxic granule associated RNA binding protein like 1),2,-0.437,59.6,44,inactive
TIAL1 (TIA1 cytotoxic granule associated RNA binding protein like 1),3,-0.282,66.8,54.9,inactive
TIAL1 (TIA1 cytotoxic granule associated RNA binding protein like 1),4,-0.296,96.2,78.3,inactive
MNAT1 (MNAT1 component of CDK activating kinase),1,-0.376,77.7,59.9,inactive
MNAT1 (MNAT1 component of CDK activating kinase),2,0.0143,83.3,84.2,inactive
MNAT1 (MNAT1 component of CDK activating kinase),3,-0.31,96.4,77.8,inactive
MNAT1 (MNAT1 component of CDK activating kinase),4,0.0272,109,111,inactive
GPC4 (glypican 4),1,0.209,88.1,102,inactive
GPC4 (glypican 4),2,0.119,83.6,90.7,inactive
GPC4 (glypican 4),3,-0.264,50.3,41.9,inactive
GPC4 (glypican 4),4,-0.184,113,99.7,inactive
CD2AP (CD2 associated protein),1,-0.204,92.2,80,inactive
CD2AP (CD2 associated protein),2,-0.443,115,84.9,inactive
CD2AP (CD2 associated protein),3,0.1,90,96.5,inactive
CD2AP (CD2 associated protein),4,-0.237,99,84,inactive
TIMP3 (TIMP metallopeptidase inhibitor 3),1,-0.147,108,97.7,inactive
TIMP3 (TIMP metallopeptidase inhibitor 3),2,0.226,46.4,54.2,inactive
TIMP3 (TIMP metallopeptidase inhibitor 3),3,-0.539,98.7,67.9,inactive
CRYGA (crystallin gamma A),1,-0.128,63.3,57.9,inactive
CRYGA (crystallin gamma A),2,0.0181,76.6,77.6,inactive
CRYGA (crystallin gamma A),3,-0.757,72.2,42.7,inactive
CRYGA (crystallin gamma A),4,-0.256,79.3,66.4,inactive
CRYGA (crystallin gamma A),5,-0.485,82.5,58.9,inactive
SIRT6 (sirtuin 6),1,0.297,49.8,61.2,inactive
SIRT6 (sirtuin 6),2,-0.125,94.1,86.3,inactive
SIRT6 (sirtuin 6),3,0.276,59.3,71.8,inactive
SIRT6 (sirtuin 6),4,-0.532,81.9,56.7,inactive
